For at least one entry, the source does not settle the construct or the ends of the probe. For some of these results: The comparison behind a weaker result is the experiment's own reference, which may not be listed here. For some of these results: At least one verdict rests on a figure or table, not on a statement of the authors. For some of these results: Protein sequences can lack the tags named with them.

The chains behind the UniProt entries cited, without tags or fusion partners. Where a name states a change or a piece, a line headed by the entry shows the natural chain unless it says otherwise.
UniProt P0A6X3: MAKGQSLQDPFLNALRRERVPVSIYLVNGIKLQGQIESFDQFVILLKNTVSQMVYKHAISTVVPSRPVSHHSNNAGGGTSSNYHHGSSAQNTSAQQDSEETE

Assay in all cases: EMSA
On the technique in general: In EMSA bound probe runs differently from free probe, usually more slowly.

Data set [1] addresses Hfq (UniProt P0A6X3). As to conditions: 0.2 uM Hfq; EMSA: 20 mM Tris pH 7.5, 100 mM NaCl, 1 mM MgCl2, 1 mM DTT, 30 C, 0.2 uM RNA; recombinant protein; probe letters rebuilt from the primers and the genome; part of a longer molecule.
Data set [2] has as its target T1, PNPase (UniProt P05055).
T1 sequence (looked up, limits assumed): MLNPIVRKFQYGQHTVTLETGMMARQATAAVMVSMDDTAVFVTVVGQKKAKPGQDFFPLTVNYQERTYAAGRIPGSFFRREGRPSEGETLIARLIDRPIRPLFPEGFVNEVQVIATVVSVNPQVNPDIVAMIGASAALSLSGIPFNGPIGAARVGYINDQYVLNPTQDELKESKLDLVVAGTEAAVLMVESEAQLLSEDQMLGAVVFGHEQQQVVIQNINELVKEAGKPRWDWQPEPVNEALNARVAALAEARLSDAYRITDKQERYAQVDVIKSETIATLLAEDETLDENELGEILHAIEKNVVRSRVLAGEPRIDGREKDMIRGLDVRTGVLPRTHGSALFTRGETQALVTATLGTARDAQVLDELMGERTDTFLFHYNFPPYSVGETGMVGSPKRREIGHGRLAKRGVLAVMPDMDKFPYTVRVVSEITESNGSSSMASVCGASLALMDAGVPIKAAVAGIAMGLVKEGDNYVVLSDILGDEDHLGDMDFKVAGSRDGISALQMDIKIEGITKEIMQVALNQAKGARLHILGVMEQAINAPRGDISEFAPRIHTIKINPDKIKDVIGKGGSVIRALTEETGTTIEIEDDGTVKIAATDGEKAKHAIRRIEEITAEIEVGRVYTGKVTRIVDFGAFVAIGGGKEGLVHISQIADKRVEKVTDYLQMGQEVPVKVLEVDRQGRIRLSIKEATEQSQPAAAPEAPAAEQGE
The conditions noted are these: EMSA: 20 mM Tris pH 7.5, 100 mM NaCl, 1 mM MgCl2, 1 mM DTT, 30 C, 0.2 uM RNA, recombinant protein, probe letters rebuilt from the primers and the genome.

Data set [3] concerns PNPase + Hfq. The conditions noted are these: ternary complex supershift; EMSA: 20 mM Tris pH 7.5, 100 mM NaCl, 1 mM MgCl2, 1 mM DTT, 30 C, 0.2 uM RNA; recombinant protein; probe letters rebuilt from the primers and the genome; part of a longer molecule.
For data set [4], the system named is PNPase S437-9A (active site mutant) + Hfq S437A,S438A,S439A. The conditions noted are these: supershift significantly reduced, EMSA: 20 mM Tris pH 7.5, 100 mM NaCl, 1 mM MgCl2, 1 mM DTT, 30 C, 0.2 uM RNA, recombinant protein, probe letters rebuilt from the primers and the genome.
In data set [5] the target is PNPase S437-9A (active site mutant) S437A,S438A,S439A (UniProt P05055). The conditions noted are these: EMSA: 20 mM Tris pH 7.5, 100 mM NaCl, 1 mM MgCl2, 1 mM DTT, 30 C, 0.2 uM RNA; recombinant protein; probe letters rebuilt from the primers and the genome; part of a longer molecule.
Data set [6] has as its target PNPase delta-S1 (UniProt P05055). As to conditions: EMSA: 20 mM Tris pH 7.5, 100 mM NaCl, 1 mM MgCl2, 1 mM DTT, 30 C, 0.2 uM RNA; recombinant protein; probe letters rebuilt from the primers and the genome; part of a longer molecule.
The mark [7] stands for this setting: 2 mM sodium phosphate, 10 mM sodium tungstate, 30 nM PNPase.

For the sequence “ACUUCCUGAGCCGGAACGAAAAGUUUUAUCGGAAUGCGUGUUCUGGUGAACUUUUGGCUUACGGUUGUGAUGUUGUGUUGUUGUGUUUGCAAUUGGUCUGCGAUUCAGACCAUGGUAGCAAAGCUACCUUUUUUCACUUCCUGUACAUUUACCCUGUCUGUCCAUAGUGAUUAAUGUAGCACCGCCUAAUUGCGGUGCUUUUUUUU [GcvB]”, the binding result is reported as “binds” in data set [1]; “binds” in data set [2] (part of a longer molecule); “binds” in data set [3]; “binds more weakly” in data set [4] (part of a longer molecule); “binds more weakly” in data set [5]; “binds more weakly” in data set [6].
Regarding “GCGAUCAGGAAGACCCUCGCGGAGAACCUGAAAGCACGACAUUGCUCACAUUGCUUCCAGUAUUACUUAGCCAGCCGGGUGCUGGCUUUU [RyhB (4U)]”, in data set [2] (setting [7]), the binding result was “binds”.
For “GCGAUCAGGAAGACCCUCGCGGAGAACCUGAAAGCACGACAUUGCUCACAUUGCUUCCAGUAUUACUUAGCCAGCCGGGUGCUGGCUUUUUUUUU [RyhB (9U)]”, the binding result in data set [4] was “binds more weakly”.
Consider “GCUGAAAAACAUAACCCAUAAAAUGCUAGCUGUACCAGGAACCACCUCCUUAGCCUGUGUAAUCUCCCUUACACGGGCUUAUUUUUU [CyaR]”, for which the binding result in data set [2] (setting [7]) is listed as “binds”; in data set [4], “binds more weakly”.

For the origin of these results see article PMC4748814.
